# Assay results reported in the supplement of paper PMC3334620.
# The full ranking holds about 33,000 sequences; the median of “E-score (-0.5 to 0.5)” is about -0.0059, and the highest 2% start at about 0.26. The list shows a part of the results.
# Biological target: T1, Cin5 (UniProt P40917)
# T1 sequence: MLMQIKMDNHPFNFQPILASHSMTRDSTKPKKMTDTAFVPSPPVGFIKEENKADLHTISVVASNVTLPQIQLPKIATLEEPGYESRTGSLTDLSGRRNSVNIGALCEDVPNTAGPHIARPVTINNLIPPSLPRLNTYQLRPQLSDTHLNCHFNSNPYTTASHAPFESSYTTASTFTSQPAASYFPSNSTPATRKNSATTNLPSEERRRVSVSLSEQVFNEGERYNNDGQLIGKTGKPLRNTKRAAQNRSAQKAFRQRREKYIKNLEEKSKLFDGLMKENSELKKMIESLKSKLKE
# Assay: PBM E-score (8-mer binding enrichment) (E-score (-0.5 to 0.5)); higher = stronger / more preferred TF binding
# Conditions: protein concentration: 100 nM; construct: GST-full length
# Method in brief: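 Yeast transcription factors carrying a GST tag, as full-length proteins or DNA-binding domains, were produced by PURExpress in vitro transcription/translation. About 100-200 nM protein was applied to universal all-10-mer Agilent arrays, double-stranded by primer extension on fresh or once-stripped slides. Bound protein was detected with fluorescent anti-GST, and scans were normalised with masliner. The Universal PBM Analysis Suite gave each ungapped eight-base word, pooled with its reverse complement, an E-score, a modified Wilcoxon-Mann-Whitney statistic.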
row,Sequence,PBM E-score
1,CCCAATAG,-0.0254
2,AGCGTTTC,-0.137
3,GGTAGGTA,0.00439
4,GCGTCCGA,-0.0919
5,ATCCTGTG,0.0179
6,CCAGTCGG,-0.178
7,GATAGACA,-0.0361
8,AATAATTA,0.35
9,ATGGGCGG,0.21
10,AAGTATGG,0.12
11,ATTAGTAC,0.173
12,CATTAGCA,-0.00263
13,TGACCTAA,0.209
14,CTTTCCGC,0.0716
15,AGGTGACT,-0.121
16,CCACATTC,0.0858
17,GCAGATCC,-0.00135
18,AGGGGGCC,-0.423
19,AAAACTCG,0.065
20,TCACTGAA,0.106
21,CATCTCTC,0.0681
22,AGTCGTTC,-0.112
23,AGATGGAT,0.104
24,CACCTCGA,0.224
25,ACTCAAAA,0.0884

row,Sequence,PBM E-score
1,CCTGCGCC,-0.209
2,CCCAGGTC,-0.165
3,ATTCTTAC,0.251
4,ATTAGAGG,-0.25
5,ATATAGAC,0.101
6,CACCGTAA,0.124
7,CCCCAGAC,-0.161
8,ACGCAACG,-0.0278
9,GGAAATAC,0.118
10,AGCGTTAC,-0.0689
11,AGTCCGAC,-0.164
12,AGAACGGA,-0.0999
13,ATGGAGAA,0.147
14,TAAGATGA,0.079
15,ATCCGTAG,-0.189
16,CTGCAATC,0.0796
17,GACAATAC,0.223
18,CTGTCAGA,-0.0993
19,CCTCGACA,-0.17
20,CTACAGTA,0.129
21,CAGCCACC,-0.111
22,GTGAGGTA,0.0001
23,CTCAGACC,-0.0636
24,AGTAATAT,0.306
25,CACAAAAG,0.0722

# Reformatted: entries from further up.
row	Sequence	PBM E-score
2	CCCAGGTC	-0.165
12	AGAACGGA	-0.0999
17	GACAATAC	0.223

# The results go on.

row,Sequence,PBM E-score
1,CAGGGCTC,-0.3
2,CTAATCGC,0.158
3,CGAGAAAA,-0.0296
4,GCGCTACC,-0.22
5,AAGAAGCA,0.0219
6,TTATCAAA,0.298
7,GCGAGGCA,0.0262
8,TATGAACA,0.00246
9,AAGACGCT,-0.249
10,ATTTAATA,0.295
11,AAATGGAA,0.0906
12,ATTGCGGA,0.0595
13,CCGCAAGG,-0.0452
14,CTAACGCA,0.00274
15,GAGTCCAC,-0.184
16,ACTCGAAT,-0.0861
17,CGTAGCGA,-0.11
18,CACACGAG,-0.157
19,ATTTTGTA,0.286
20,AGATTATA,0.15
21,ATTCTCCG,0.0653
22,AAACACGA,0.121
23,CAGCTTCA,-0.185
24,TCAGCGAA,-0.0492
25,CGCGACCA,0.1

row,Sequence,PBM E-score
1,GGTGGGTA,0.0827
2,ATCCTTCG,-0.058
3,CACGATTA,0.154
4,AGTCTGAC,-0.0909
5,GATGGCAC,-0.189
6,AAAACTGA,-0.0242
7,AGTTGGGC,0.0862
8,GGTTTTTA,0.0638
9,GACCGAAA,0.0524
10,ACCGTAAG,0.144
11,CCGCGGGA,0.316
12,CAAAAGTA,0.0823
13,AAGTCTCG,-0.241
14,CCGGAGGA,-0.248
15,ATGGGCTA,0.13
16,ACTAACTA,0.0916
17,TCTTTTAA,-0.00889
18,CTCTCCAA,0.0368
19,ATGGCACA,-0.0295
20,CCGTTGAG,-0.157
21,TCATGCCA,0
22,CTATGGCA,-0.0671
23,AGGCGGTG,-0.102
24,CAGCCCTC,-0.266
25,CCTCTGCA,-0.129

# Nothing new here: entries from further up.
row,Sequence,PBM E-score
9,GACCGAAA,0.0524
10,ACCGTAAG,0.144
11,CCGCGGGA,0.316
12,CAAAAGTA,0.0823
13,AAGTCTCG,-0.241
14,CCGGAGGA,-0.248
15,ATGGGCTA,0.13

# Further entries follow.

row,Sequence,PBM E-score
1,ACTAGCCG,-0.158
2,ACACGGCC,-0.139
3,CCAACCAA,-0.0346
4,CGCTGAGC,0.0206
5,CCTACGAC,-0.123
6,TCGTAAAA,0.0717
7,CGATTATC,0.112
8,AAACAACA,0.0705
9,ATAATTTG,0.208
10,ACGCCACC,-0.234
11,TCTGAAGA,-0.225
12,TCTCTGCA,-0.116
13,CGGGGATA,-0.00936
14,CCACATCG,-0.0556
15,AAGTTGTA,0.178
16,AAGGGTCG,-0.122
17,CGCATCCA,0.058
18,GTAGTGAC,0.124
19,GGCTGTAA,-0.129
20,AGGCATTA,-0.00853
21,CATCGACG,-0.0851
22,CGGGGTCC,-0.203
23,AGATCTCA,0.0634
24,GCTCGATA,-0.0435
25,GAGAACGA,0.0534

row,Sequence,PBM E-score
1,GCCGTTGA,-0.0093
2,GCTTATGA,0.235
3,GGCCATGA,-0.0378
4,GTTGTACA,0.0708
5,CAGGGTTA,-0.13
6,ACTGTCAC,-0.126
7,AGACATCA,0.0536
8,AGGTGTTA,-0.00894
9,CGACGTCC,0.0493
10,GCTCGAGA,-0.211
11,ACGACGCT,-0.2
12,ACAATAAA,0.162
13,CCCGTTAA,-0.077
14,ATAGCTAC,0.0829
15,AACATTGG,-0.151
16,ATCGGAGC,-0.124
17,ATAAGGGA,-0.038
18,AGGCTCGC,-0.162
19,AACGTAAT,0.421
20,CGAAGGAA,-0.0716
21,ATTCTAAA,0.021
22,AGATTAAA,0.212
23,CCATTGAC,-0.0631
24,CCAGCCGC,-0.0701
25,AGAGTACG,-0.0321

row,Sequence,PBM E-score
1,TCCGTTCA,-0.00091
2,GAGGGACA,-0.0319
3,ATGTTAAT,0.121
4,CATGCTCG,-0.0648
5,CAAAGGGC,-0.14
6,ATGGGACG,-0.114
7,GTAGTATA,0.218
8,AAATGGCA,0.176
9,AAGGCTTA,0.0712
10,AGGCGCCG,-0.0787
11,AGTGTTAC,0.143
12,ACCGCATG,-0.148
13,ACGCTTGA,-0.00096
14,ATTACCTG,0.113
15,CCGCAGCA,0.0201
16,CTTTTAAA,-0.00187
17,AAGGCCGT,-0.091
18,AAATGGGG,-0.205
19,ATAGGACA,-0.0323
20,CCACGTTA,0.0735
21,ACTATCCA,0.0276
22,CTAGAGTA,0.0377
